PubChem BioAssay AID1259308 | NCATS | 2017

- Aim: 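Candidate targets for better recombinant protein yield in mammalian cells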 (primary screen)
- System: human HEK293 embryonic kidney cells stably expressing firefly luciferase (HEK-CMV-Luc2-Hygro)
- Reagent: single siRNA against human genes, 0.8 pmol siRNA per well
- Timing: 72 h
- Measurement: 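Luciferase light (ONE-Glo) measured on one replicate plate set and viability (CellTiter-Glo) on the other, scaled to a negative control siRNA, with robust z-scores and luciferase per cell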
- Reading the numbers: total luciferase, z-score and total luciferase, % of control: higher = more reporter protein produced
- Active means: 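Active when the median/MAD z-score for overall luciferase is greater than 3; a gene was taken forward for validation with new siRNAs if at least two of its three siRNAs passed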
- Calls: active = raised luciferase; inactive = no rise
Shown is a random part of about 59,000 reagents. Of all reagents, about 1,510 (2.6%) got an active call. 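Calls use total luciferase alone and ignore viability, so some active siRNAs may act by altering cell number.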 Further read-outs or replicates are left out here.

Against GPBP1 (GC-rich promoter binding protein 1) [SID160748222] the deposit lists total luciferase, z-score -0.317; total luciferase, % of control 75.6; inactive. With knock-down of GPBP1 (GC-rich promoter binding protein 1) [SID160748223] the results were total luciferase, z-score 0.492; total luciferase, % of control 91.7; inactive. Knock-down of GPBP1 (GC-rich promoter binding protein 1) [SID160748224] gave: total luciferase, z-score -0.159; total luciferase, % of control 78.7; inactive. For GFPT2 (glutamine--fructose-6-phosphate transaminase 2) [SID160723511], the entry reads total luciferase, z-score -0.614; total luciferase, % of control 69.7; inactive. For GFPT2 (glutamine--fructose-6-phosphate transaminase 2) [SID160723512] the deposit lists total luciferase, z-score 0.311; total luciferase, % of control 88.1; inactive. Depletion of GFPT2 (glutamine--fructose-6-phosphate transaminase 2) [SID160732229] gave: total luciferase, z-score -0.947; total luciferase, % of control 63; inactive.

Silencing of WDR72 (WD repeat domain 72) [SID160762483] gave: total luciferase, z-score -0.394; total luciferase, % of control 74.1; inactive. WDR72 (WD repeat domain 72) [SID160762484] scored total luciferase, z-score -1.56; total luciferase, % of control 50.8; inactive. Knock-down of WDR72 (WD repeat domain 72) [SID160762485] resulted in: total luciferase, z-score -0.0844; total luciferase, % of control 80.2; inactive. Depletion of NNMT (nicotinamide N-methyltransferase) [SID160778118] came out at: total luciferase, z-score 0.104; total luciferase, % of control 84; inactive. NNMT (nicotinamide N-methyltransferase) [SID160778119] scored total luciferase, z-score -0.345; total luciferase, % of control 75; inactive. NNMT (nicotinamide N-methyltransferase) [SID160778120] gave total luciferase, z-score -0.445; total luciferase, % of control 73; inactive.

Part of the list above, set out differently:
gene	PubChem SID	total luciferase, z-score	total luciferase, % of control	Outcome
GPBP1 (GC-rich promoter binding protein 1)	SID160748223	0.492	91.7	inactive
GPBP1 (GC-rich promoter binding protein 1)	SID160748224	-0.159	78.7	inactive
GFPT2 (glutamine--fructose-6-phosphate transaminase 2)	SID160723511	-0.614	69.7	inactive

More records:
Depletion of OAS1 (2'-5'-oligoadenylate synthetase 1) [SID160731312] gave: total luciferase, z-score 3.55; total luciferase, % of control 153; active. OAS1 (2'-5'-oligoadenylate synthetase 1) [SID160764918] scored total luciferase, z-score -0.975; total luciferase, % of control 62.5; inactive. After knock-down of OAS1 (2'-5'-oligoadenylate synthetase 1) [SID160765019], the record shows total luciferase, z-score 2.18; total luciferase, % of control 125; inactive. For RAB8B (RAB8B, member RAS oncogene family) [SID160741327], the values are total luciferase, z-score -0.174; total luciferase, % of control 78.4; inactive. RAB8B (RAB8B, member RAS oncogene family) [SID160741328] gave total luciferase, z-score -1.85; total luciferase, % of control 45.2; inactive. Against RAB8B (RAB8B, member RAS oncogene family) [SID160741329] the deposit lists total luciferase, z-score 1.07; total luciferase, % of control 103; inactive.

OR5M9 (olfactory receptor family 5 subfamily M member 9) [SID160766417] scored total luciferase, z-score -0.617; total luciferase, % of control 69.6; inactive. OR5M9 (olfactory receptor family 5 subfamily M member 9) [SID160766418] showed total luciferase, z-score 0.733; total luciferase, % of control 96.5; inactive. Depletion of OR5M9 (olfactory receptor family 5 subfamily M member 9) [SID160766420] resulted in: total luciferase, z-score 1.88; total luciferase, % of control 119; inactive.
